Results as given in patent US9381257B2, “Triarylmethyl radicals” (BRACCO IMAGING S.P.A., priority 2012, dated 2016).

Experiment: DNP polarization build-up and dissolution of ethylacetoacetate with the radical as polarizing agent
Method: Radical 1 (1.50 mg, 1.4 μmol) was dissolved in 15-Crown-5 (60.5 μl, 67.2 mg) to make a 24 mM solution. To 30 μl (33.7 mg) of this solution was added 1,3-^13C2 ethylacetoacetate (10.5 mg, 79 μmol, 158 μmol ^13C). The radical 1 concentration in the mixture was 18 mM.
43 mg of the composition prepared above were transferred from the Eppendorf tube to a sample cup and the sample cup was inserted into a DNP polarizer. The composition was polarised under DNP conditions at 1.2 K in a 3.35 T magnetic field under irradiation with microwave (93.900 GHz). The calculated solid-state polarization was 17% and the polarization build-up constant was 900 s.
The sample was dissolved in 6 ml 40 mM phosphate buffer pH 7.3+100 mg/l EDTA. A time series of 1D 13C-NMR spectra were recorded with a total delay between the pulses of 3 s. The liquid state polarization was 14% after 12 s transfer time. The pH was 7.3 in the dissolved sample. […]
43 mg of the composition prepared above were transferred from the Eppendorf tube to a sample cup and the sample cup was inserted into a DNP polarizer. […] The calculated solid-state polarization was 18% and the polarization build-up constant was 1700 s.
The sample was dissolved in 6 ml 40 mM phosphate buffer pH 7.3+100 mg/l EDTA. A time series of 1D 13C-NMR spectra were recorded with a total delay between the pulses of 3 s. […]

Substance “tris{8-carboxyl-2,2,6,6-tetramethyl-benzo(1,2-d:4,5-dS)bis(1,3)dithiole-4-yl}methyl sodium salt [Radical 1, reference compound]” has a calculated solid-state polarization (18 mM radical in 15-Crown-5 / 1,3-13C2 ethylacetoacetate, DNP at 1.2 K, 3.35 T, microwave irradiation) of 17% and a liquid state polarization (after 12 s transfer time, dissolved in 6 ml 40 mM phosphate buffer pH 7.3 + 100 mg/l EDTA) of 14%.
